Data as given in PubChem BioAssay AID504786 (Drosophila RNAi Screening Center, 2011).

Purpose: 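Positive regulators of HIF-driven reporter output in Drosophila cells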 (primary screen)
System: Drosophila S2 cells with a stable HIF luciferase reporter
Reagent: long dsRNA against Drosophila genes, about 0.2 µg dsRNA per well of a 384-well plate
Timing: three days of knock-down, then 20 h of DFO before reading
Conditions: desferrioxamine (DFO) at 100 µM, an iron chelator that mimics hypoxia, for 20 h
Read-out: 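HIF reporter luminescence in cells given 100 µM DFO for 20 h, using the mouse ldh-a hypoxia-response element, scored as per-plate z-scores; higher means greater loss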
Scale: z-score: higher = stronger loss of HIF reporter signal
The screen tested about 21,000 reagents; this is an unselected part of those that have a named target and a result. 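Primary screen; positive scores mean lost reporter signal, so the sign may be inverted from the usual convention.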 A plus sign joins genes that one reagent is predicted to hit.

| predicted target | amplicon | z-score, replicate 1 | z-score, replicate 2 | z-score, replicate 3 | z-score, replicate 4 |
| --- | --- | --- | --- | --- | --- |
| CG12828 (GeneID 5740660) | DRSC06177 | -0.3 | -0.4 | – | – |
| Tapdelta (GeneID 45680) | DRSC05946 | -0.2 | -0.5 | – | – |
| east (GeneID 46006) | DRSC18770 | -0.3 | -0.3 | – | – |
| Cnx99A + Cnx14D | DRSC16610 | -0.3 | -0.6 | – | – |
| CG4887 (GeneID 33304) | DRSC00670 | -0.2 | -0.4 | – | – |
| CG30275 (GeneID 246522) | DRSC04163 | -0.4 | -0.3 | – | – |
| CG1421 (GeneID 35432) | DRSC03707 | -0.1 | -0.1 | – | – |
| Cnot4 (GeneID 34416) | DRSC02830 | -0.1 | 0.3 | – | – |
| Cnot4 (GeneID 34416) | DRSC02831 | 0 | -0.1 | – | – |
| Rab5 (GeneID 33418) | DRSC00777 | -0.3 | -0.3 | – | – |
| CG31674 (GeneID 318878) | DRSC03208 | -0.2 | 0 | – | – |
| CG7071 + Muted | DRSC16189 | -0.4 | -0.4 | – | – |
| CG9896 (GeneID 37652) | DRSC03962 | -0.9 | -0.7 | – | – |
| CG9896 (GeneID 37652) | DRSC04594 | -0.3 | -0.5 | – | – |
| EloB (GeneID 42435) | DRSC16663 | 0.7 | -0.2 | – | – |
| srl (GeneID 40562) | DRSC12340 | -0.3 | -0.4 | – | – |
| CG10514 (GeneID 43052) | DRSC14249 | 0 | 0 | – | – |
| CG43394 (GeneID 318843) | DRSC01013 | -0.7 | -0.3 | – | – |
| CG8475 (GeneID 34114) | DRSC03091 | -0.4 | -0.7 | – | – |
| sgll (GeneID 40925) | DRSC15442 | -0.2 | -0.2 | – | – |
| ago (GeneID 38516) | DRSC08463 | 0.3 | -0.3 | – | – |
| CG8369 (GeneID 50005) | DRSC16413 | 0.3 | -0.4 | – | – |
| chinmo (GeneID 33343) | DRSC00292 | -0.3 | -0.3 | – | – |
| chinmo (GeneID 33343) | DRSC00485 | 1.3 | 0.8 | – | – |
| chinmo (GeneID 33343) | DRSC00509 | 5.1 | 3.6 | – | – |
| CysRS (GeneID 36784) | DRSC05948 | -0.3 | -0.5 | -0.7 | -0.3 |
| row (GeneID 36685) | DRSC07076 | 0.3 | 0.5 | – | – |
| row (GeneID 36685) | DRSC07077 | 1.3 | 1.4 | – | – |
| CG42457 (retired record) + cpo | DRSC13273 | 0 | 0.5 | – | – |
| CG42457 (retired record) + cpo | DRSC14503 | 2.8 | -1.1 | – | – |
| CG42457 (retired record) + cpo | DRSC15327 | 2 | -0.8 | – | – |
| CG42457 (retired record) + cpo | DRSC16926 | -1 | -0.8 | – | – |
| na (GeneID 45338) | DRSC19639 | -0.1 | -0.7 | – | – |
| CG33125 (GeneID 318892) | DRSC00145 | -0.2 | 0 | – | – |
| CG11444 (GeneID 31388) | DRSC17784 | -0.2 | 0.3 | – | – |
| etaTry (GeneID 36217) | DRSC07613 | -0.2 | -0.1 | – | – |
| CG16956 (GeneID 34760) | DRSC02544 | 0.5 | -0.1 | – | – |
| CG14762 (GeneID 35768) | DRSC05073 | -0.1 | -0.1 | – | – |
| CG14762 (GeneID 35768) | DRSC06496 | -0.3 | -0.3 | – | – |
| GstS1 (GeneID 36927) | DRSC07436 | -0.2 | -0.2 | – | – |
| nkd (GeneID 44843) | DRSC11376 | -0.2 | -0.3 | – | – |
| ACXB (GeneID 53427) | DRSC00845 | -0.3 | -0.2 | – | – |
| CG15614 (GeneID 36899) | DRSC06567 | -0.3 | -0.4 | – | – |
| Mvk + CG33672 + spt4 | DRSC05356 | -0.3 | 0 | – | – |
| Mvk + CG33672 + spt4 | DRSC06628 | -0.2 | -0.1 | – | – |
| Piezo (GeneID 34112) | DRSC03092 | -0.3 | -0.4 | – | – |
| CG33958 (GeneID 37088) | DRSC06472 | -0.3 | 1.3 | – | – |
| CG33958 (GeneID 37088) | DRSC06944 | -0.4 | -0.7 | – | – |
| T48 (GeneID 43235) | DRSC16878 | -0.3 | 0.2 | – | – |
| CG18809 (GeneID 59170) | DRSC19818 | 0.5 | 0.1 | – | – |
| CG3857 (GeneID 2768908) | DRSC18542 | -0.2 | -0.7 | – | – |
| CG4650 (GeneID 34859) | DRSC02767 | -0.3 | -0.2 | – | – |
| beta3GalTII (GeneID 35848) | DRSC07253 | -0.1 | -0.1 | – | – |
| CG17999 (GeneID 37357) | DRSC04300 | -0.3 | -0.3 | – | – |
| Rcd2 (GeneID 40283) | DRSC11756 | -0.3 | 0.1 | – | – |
| Golgin104 (GeneID 39810) | DRSC10459 | -0.2 | -0.1 | – | – |

9 consecutive reagents from above, for reference:
| predicted target | amplicon | z-score, replicate 1 | z-score, replicate 2 | z-score, replicate 3 | z-score, replicate 4 |
| --- | --- | --- | --- | --- | --- |
| CG8369 (GeneID 50005) | DRSC16413 | 0.3 | -0.4 | – | – |
| chinmo (GeneID 33343) | DRSC00292 | -0.3 | -0.3 | – | – |
| chinmo (GeneID 33343) | DRSC00485 | 1.3 | 0.8 | – | – |
| chinmo (GeneID 33343) | DRSC00509 | 5.1 | 3.6 | – | – |
| CysRS (GeneID 36784) | DRSC05948 | -0.3 | -0.5 | -0.7 | -0.3 |
| row (GeneID 36685) | DRSC07076 | 0.3 | 0.5 | – | – |
| row (GeneID 36685) | DRSC07077 | 1.3 | 1.4 | – | – |
| CG42457 (retired record) + cpo | DRSC13273 | 0 | 0.5 | – | – |
| CG42457 (retired record) + cpo | DRSC14503 | 2.8 | -1.1 | – | – |
